Taken from: PubChem BioAssay AID504808 (Drosophila RNAi Screening Center, 2011)
The deposit covers about 21,000 reagents; below is an unselected part of those that have a named target and a result. In the full data, 18 (0.084%) were called active. 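Raw counts without plate normalisation, one of two replicates; the ratio scores behind the calls were not deposited.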 A number with no mark means an inactive call. Reagents against one gene are numbered here. Not stated in the record: the amount of reagent, the time to read-out.

Test: 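Fly genes required to hold E2F transcription in check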 (primary screen)
Cells: Drosophila S2 cells
Reagents: long dsRNA against Drosophila genes
Detection: 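Firefly luciferase driven by E2F sites, normalised to Renilla luciferase on the same minimal promoter, measured by plate reader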
Scale: E2F firefly: higher = more E2F reporter activity; Renilla normaliser: higher = more normaliser reporter signal
Active means: 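Called active if the normalised E2F reporter went up by over 50%; the cutoff is arbitrary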

yellow-g2 (GeneID 38295) | E2F firefly, rep 1 = 90425; Renilla normaliser, rep 1 = 4209
CG9643 (GeneID 33504) | E2F firefly, rep 1 = 1.47e5; Renilla normaliser, rep 1 = 5606
CG32457 (GeneID 318040) | E2F firefly, rep 1 = 79934; Renilla normaliser, rep 1 = 4118
Hasp (GeneID 35238) | E2F firefly, rep 1 = 77002; Renilla normaliser, rep 1 = 3451
Alp7 (GeneID 37538) | E2F firefly, rep 1 = 1.01e5; Renilla normaliser, rep 1 = 3637
TTLL6B (GeneID 43282) | E2F firefly, rep 1 = 85783; Renilla normaliser, rep 1 = 6712
FoxL1 (GeneID 38471) | E2F firefly, rep 1 = 1.04e5; Renilla normaliser, rep 1 = 4261
Blos1 (GeneID 246439) | E2F firefly, rep 1 = 1.03e5; Renilla normaliser, rep 1 = 3593
CG14985 (GeneID 38470) #1 | E2F firefly, rep 1 = 1.32e5; Renilla normaliser, rep 1 = 5033
CG14985 (GeneID 38470) #2 | E2F firefly, rep 1 = 96193; Renilla normaliser, rep 1 = 4145
CG7084 (GeneID 42606) | E2F firefly, rep 1 = 83765; Renilla normaliser, rep 1 = 4189
Fbxl7 (GeneID 41935) | E2F firefly, rep 1 = 1.21e5; Renilla normaliser, rep 1 = 6275

Already shown: entries from further up.
FoxL1 (GeneID 38471) | E2F firefly, rep 1 = 1.04e5; Renilla normaliser, rep 1 = 4261
Blos1 (GeneID 246439) | E2F firefly, rep 1 = 1.03e5; Renilla normaliser, rep 1 = 3593
